{"source": "patent US7030157B2", "about": "“Pharmaceutical compositions, kits and methods comprising combinations of estrogen agonists/antagonists, estrogens and progestins” (priority 2001, dated 2006)", "assay": "Body weight gain in OVX rats", "assay_type": "in vivo, Sprague-Dawley female rats", "conditions": "daily gavage 28 days, EE 0.03 mg/kg, LAS 0.1 mg/kg"}
{"smiles": "C#C[C@]1(O)CC[C@H]2[C@@H]3CCc4cc(O)ccc4[C@H]3CC[C@@]21C", "note": "[EE, 17α-ethanyl estradiol, reference compound]", "values": [{"measurement": "body weight gain compared with sham and OVX controls", "value": "significantly lower than sham and OVX controls"}]}
{"smiles": "O=C(O)C(O)C(O)C(=O)O.Oc1ccc2c(c1)CC[C@H](c1ccccc1)[C@@H]2c1ccc(OCCN2CCCC2)cc1", "note": "[LAS, (−)-cis-6-phenyl-5-[4-(2-pyrrolidin-1-yl-ethoxy)-phenyl]-5,6,7,8-tetrahydro-naphthalene-2-ol, tartrate salt]", "values": [{"measurement": "body weight gain compared with rats treated with EE alone", "value": "gained significantly less than those rats treated with EE alone"}, {"measurement": "body weight gain compared with sham and OVX controls", "value": "significantly lower than sham and OVX controls"}]}
